Laboratory results as given in PMC12263440.
Weaker means in comparison with the reference protein, sequence or condition of that experiment. Protein sequences can lack the tags named with them. For some assays here: The exact form of at least one protein or probe is not confirmed.

Experiments:
DEK WT (human) [1] = target: T1, DEK WT (human) (UniProt P35659); experiment: EMSA; details: 14 mM Tris-HCl pH 7.5, 75 mM NaCl, 0.7 mM DTT, 6% glycerol, 0.25 mM EDTA, 0.05 mM PMSF, 0.001% polyglutamic acid, 0.1 mg/ml BSA, 0.1 uM nucleosome, 37 C 30 min; recombinant protein; residues 1-375; protein details: His6-SUMO removed by HRV 3C
T1 sequence (looked up): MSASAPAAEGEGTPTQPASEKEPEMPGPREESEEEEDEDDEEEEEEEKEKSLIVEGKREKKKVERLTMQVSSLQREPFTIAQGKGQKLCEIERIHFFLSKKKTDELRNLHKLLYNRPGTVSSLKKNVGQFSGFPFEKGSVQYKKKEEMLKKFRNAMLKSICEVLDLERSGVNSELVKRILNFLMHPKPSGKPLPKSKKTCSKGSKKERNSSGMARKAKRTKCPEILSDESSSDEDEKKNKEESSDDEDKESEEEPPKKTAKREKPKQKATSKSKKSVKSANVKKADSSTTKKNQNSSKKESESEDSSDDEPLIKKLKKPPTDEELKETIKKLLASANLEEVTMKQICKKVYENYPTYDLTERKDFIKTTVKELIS

DEK WT (human) [2] = target: T1, DEK WT (human); experiment: competition with a labelled probe; details: nucleosome and naked DNA together, nucleosome preferred; 14 mM Tris-HCl pH 7.5, 75 mM NaCl, 0.7 mM DTT, 6% glycerol, 0.25 mM EDTA, 0.05 mM PMSF, 0.001% polyglutamic acid, 0.1 mg/ml BSA, 0.1 uM nucleosome, 37 C 30 min; recombinant protein; residues 1-375; protein details: His6-SUMO removed by HRV 3C

Sequence: ATCACGTAATATTGGCCAGCTAGGATCACAATCCCGGTGCCGAGGCCGCTCAATTGGTCGTAGACAGCTCTAGCACCGCTTAAACGCACGTACGGAATCCGTACGTGCGTTTAAGCGGTGCTAGAGCTGTCTACGACCAATTGAGCGGCCTCGGCACCGGGATTGTGATCCTAGCTGGCCAATATTACGTGAT (double strand) [193-bp naked DNA (Widom 601L)]
- binding result (DEK WT (human) [1]): binds more weakly
- binding result (DEK WT (human) [2]): binds more weakly
